Experimental data taken from the supplement of paper PMC8728848.
The list shows a part of the results.

Experiments:
Assay in all cases: glycan array binding signal (z-score within array); higher = stronger binding
Settings in all cases: glycan notation: IUPAC condensed, linker removed
[1] = target: Neu5Ac(a2-6)Gal(b1-3)GlcNAc(b1-3)[Gal(b1-4)GlcNAc(b1-6)]Gal(b1-4)Glc
How it was run: (§1)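 Glycan array binding is given as a within-array Z-score, which can be read as non-binding when negative. The arrays, 3228 of them, came from the Consortium for Functional Glycomics database and were retained only where the protein sequence was available. Z-scores were averaged across arrays of the same protein sequence at different concentrations or buffers and across linkers.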

Neu5Ac(a2-6)Gal(b1-4)Glc = target: Neu5Ac(a2-6)Gal(b1-4)Glc
How it was run: as §1

[2] = target: Neu5Ac(a2-6)Gal(b1-4)GlcNAc
How it was run: as §1

[3] = target: Neu5Ac(a2-6)Gal(b1-4)GlcNAc(b1-2)Man
How it was run: as §1

[4] = target: Neu5Ac(a2-6)Gal(b1-4)GlcNAc(b1-2)Man(a1-3)Man(b1-4)GlcNAc(b1-4)GlcNAc
How it was run: as §1

[5] = target: Neu5Ac(a2-6)Gal(b1-4)GlcNAc(b1-2)Man(a1-3)[Gal(b1-4)GlcNAc(b1-2)Man(a1-6)]Man(b1-4)GlcNAc(b1-4)GlcNAc
How it was run: as §1

[6] = target: Neu5Ac(a2-6)Gal(b1-4)GlcNAc(b1-2)Man(a1-3)[GlcNAc(b1-2)Man(a1-6)]Man(b1-4)GlcNAc(b1-4)GlcNAc
How it was run: as §1

[7] = target: Neu5Ac(a2-6)Gal(b1-4)GlcNAc(b1-2)Man(a1-3)[GlcNAc(b1-4)][Neu5Ac(a2-6)Gal(b1-4)GlcNAc(b1-2)Man(a1-6)]Man(b1-4)GlcNAc(b1-4)GlcNAc
How it was run: as §1

[8] = target: Neu5Ac(a2-6)Gal(b1-4)GlcNAc(b1-2)Man(a1-3)[Man(a1-6)]Man(b1-4)GlcNAc(b1-4)GlcNAc
How it was run: as §1

[9] = target: Neu5Ac(a2-6)Gal(b1-4)GlcNAc(b1-2)Man(a1-3)[Neu5Ac(a2-3)Gal(b1-4)GlcNAc(b1-2)Man(a1-6)]Man(b1-4)GlcNAc(b1-4)GlcNAc
How it was run: as §1

[10] = target: Neu5Ac(a2-6)Gal(b1-4)GlcNAc(b1-2)Man(a1-3)[Neu5Ac(a2-6)Gal(b1-4)GlcNAc(b1-2)Man(a1-6)]Man(b1-4)GlcNAc(b1-4)GlcNAc
How it was run: as §1

[11] = target: Neu5Ac(a2-6)Gal(b1-4)GlcNAc(b1-2)Man(a1-3)[Neu5Ac(a2-6)Gal(b1-4)GlcNAc(b1-2)Man(a1-6)]Man(b1-4)GlcNAc(b1-4)[Fuc(a1-6)]GlcNAc
How it was run: as §1

[12] = target: Neu5Ac(a2-6)Gal(b1-4)GlcNAc(b1-2)Man(a1-6)Man(b1-4)GlcNAc(b1-4)GlcNAc
How it was run: as §1

[13] = target: Neu5Ac(a2-6)Gal(b1-4)GlcNAc(b1-2)Man(a1-6)[Gal(b1-4)GlcNAc(b1-2)Man(a1-3)]Man(b1-4)GlcNAc(b1-4)GlcNAc
How it was run: as §1

[14] = target: Neu5Ac(a2-6)Gal(b1-4)GlcNAc(b1-2)Man(a1-6)[GlcNAc(b1-2)Man(a1-3)]Man(b1-4)GlcNAc(b1-4)GlcNAc
How it was run: as §1

[15] = target: Neu5Ac(a2-6)Gal(b1-4)GlcNAc(b1-2)Man(a1-6)[Man(a1-3)]Man(b1-4)GlcNAc(b1-4)GlcNAc
How it was run: as §1

[16] = target: Neu5Ac(a2-6)Gal(b1-4)GlcNAc(b1-2)[Neu5Ac(a2-6)Gal(b1-4)GlcNAc(b1-4)]Man(a1-3)[GlcNAc(b1-4)][Neu5Ac(a2-6)Gal(b1-4)GlcNAc(b1-2)[Neu5Ac(a2-6)Gal(b1-4)GlcNAc(b1-6)]Man(a1-6)]Man(b1-4)GlcNAc(b1-4)GlcNAc
How it was run: as §1

[17] = target: Neu5Ac(a2-6)Gal(b1-4)GlcNAc(b1-2)[Neu5Ac(a2-6)Gal(b1-4)GlcNAc(b1-4)]Man(a1-3)[GlcNAc(b1-4)][Neu5Ac(a2-6)Gal(b1-4)GlcNAc(b1-4)Man(a1-6)]Man(b1-4)GlcNAc(b1-4)GlcNAc
How it was run: as §1

[18] = target: Neu5Ac(a2-6)Gal(b1-4)GlcNAc(b1-2)[Neu5Ac(a2-6)Gal(b1-4)GlcNAc(b1-6)]Man(a1-6)[Neu5Ac(a2-6)Gal(b1-4)GlcNAc(b1-2)Man(a1-3)][GlcNAc(b1-4)]Man(b1-4)GlcNAc(b1-4)GlcNAc
How it was run: as §1

[19] = target: Neu5Ac(a2-6)Gal(b1-4)GlcNAc(b1-3)Gal(b1-3)GlcNAc
How it was run: as §1

[20] = target: Neu5Ac(a2-6)Gal(b1-4)GlcNAc(b1-3)Gal(b1-4)GlcNAc
How it was run: as §1

[21] = target: Neu5Ac(a2-6)Gal(b1-4)GlcNAc(b1-3)Gal(b1-4)GlcNAc(b1-2)Man(a1-3)[Neu5Ac(a2-6)Gal(b1-4)GlcNAc(b1-3)Gal(b1-4)GlcNAc(b1-2)Man(a1-6)]GalNAc
How it was run: as §1

[22] = target: Neu5Ac(a2-6)Gal(b1-4)GlcNAc(b1-3)Gal(b1-4)GlcNAc(b1-3)Gal(b1-4)GlcNAc
How it was run: as §1

[23] = target: Neu5Ac(a2-6)Gal(b1-4)GlcNAc(b1-3)Gal(b1-4)GlcNAc(b1-3)Gal(b1-4)GlcNAc(b1-2)Man(a1-3)[Neu5Ac(a2-6)Gal(b1-4)GlcNAc(b1-3)Gal(b1-4)GlcNAc(b1-3)Gal(b1-4)GlcNAc(b1-2)Man(a1-6)]GalNAc
How it was run: as §1

[24] = target: Neu5Ac(a2-6)Gal(b1-4)GlcNAc(b1-3)Gal(b1-4)GlcNAc(b1-3)GalNAc
How it was run: as §1

[25] = target: Neu5Ac(a2-6)Gal(b1-4)GlcNAc(b1-3)Gal(b1-4)GlcNAc(b1-3)[Neu5Ac(a2-6)Gal(b1-4)GlcNAc(b1-3)Gal(b1-4)GlcNAc(b1-6)]GalNAc
How it was run: as §1

[26] = target: Neu5Ac(a2-6)Gal(b1-4)GlcNAc(b1-3)Gal(b1-4)GlcNAc(b1-6)[Gal(b1-3)]GalNAc
How it was run: as §1

[27] = target: Neu5Ac(a2-6)Gal(b1-4)GlcNAc(b1-3)Gal(b1-4)[Fuc(a1-3)]GlcNAc(b1-3)Gal(b1-4)[Fuc(a1-3)]GlcNAc
How it was run: as §1

[28] = target: Neu5Ac(a2-6)Gal(b1-4)GlcNAc(b1-3)GalNAc
How it was run: as §1

[29] = target: Neu5Ac(a2-6)Gal(b1-4)GlcNAc(b1-3)[Neu5Ac(a2-6)Gal(b1-4)GlcNAc(b1-6)]GalNAc
How it was run: as §1

[30] = target: Neu5Ac(a2-6)Gal(b1-4)GlcNAc(b1-6)GalNAc
How it was run: as §1

[31] = target: Neu5Ac(a2-6)Gal(b1-4)GlcNAc(b1-6)[Gal(b1-3)GlcNAc(b1-3)]Gal(b1-4)Glc
How it was run: as §1

[32] = target: Neu5Ac(a2-6)Gal(b1-4)GlcNAc(b1-6)[Gal(b1-3)]GalNAc
How it was run: as §1

[33] = target: Neu5Ac(a2-6)Gal(b1-4)GlcNAc6S
How it was run: as §1

Neu5Ac(a2-6)GalNAc = target: Neu5Ac(a2-6)GalNAc
How it was run: as §1

[34] = target: Neu5Ac(a2-6)GalNAc(b1-4)GlcNAc
How it was run: as §1

[35] = target: Neu5Ac(a2-6)GalNAc(b1-4)GlcNAc6S
How it was run: as §1

[36] = target: Neu5Ac(a2-6)GlcNAc(b1-4)GlcNAc
How it was run: as §1

B1: Mnn9-2N3 (Aspergillus fumigatus) (protein)
chain: MAVARRMRRTNPITLLLAAILAIGFFIFVLSPSTTSASPVKAGSASSSSTSQQRREDNAAENPLSPPTKPFFKSQPVRHDGQQAPPPVVQYNLNQLSSTSTSAANGERILILTPMARFVPEYWDNVVKLTYPHELISIGFIIPKNKEGNAALAALEAAIAKTQSGPIDKRFASISILRQDFEPPLQSQDEKERHKISNQKARRESMSRARNSLLFTTLGPATAWVLWLDADIVETPPTLIQDLTAHDHPVLVPNCYQRYYNSEKKKMDVRPYDYNSWIDSSTAQSMAAEMGPDEILLEGYAEMPTYRTLMAHLADTANPNPKKVIELDGVGGTALMVKAEVHRDGAMFPAFPFYHLVETEGFAKMAKRLGYSVYGLPDYFVSRNFFFFFFFFFFG
- glycan array binding signal (z-score) [1]: -0.111
- glycan array binding signal (z-score) (Neu5Ac(a2-6)Gal(b1-4)Glc): -0.019
- glycan array binding signal (z-score) [2]: 0.028
- glycan array binding signal (z-score) [3]: 0.302
- glycan array binding signal (z-score) [4]: -0.378
- glycan array binding signal (z-score) [5]: -1.64
- glycan array binding signal (z-score) [6]: -1.47
- glycan array binding signal (z-score) [7]: 0.123
- glycan array binding signal (z-score) [8]: -1.47
- glycan array binding signal (z-score) [9]: 0.486
- glycan array binding signal (z-score) [10]: 0.238
- glycan array binding signal (z-score) [11]: 0.808
- glycan array binding signal (z-score) [12]: -1.03
- glycan array binding signal (z-score) [13]: -0.688
- glycan array binding signal (z-score) [14]: -0.95
- glycan array binding signal (z-score) [15]: 0.227
- glycan array binding signal (z-score) [16]: 0.205
- glycan array binding signal (z-score) [17]: 0.302
- glycan array binding signal (z-score) [18]: 0.053
- glycan array binding signal (z-score) [19]: -0.158
- glycan array binding signal (z-score) [20]: 0.133
- glycan array binding signal (z-score) [21]: -0.77
- glycan array binding signal (z-score) [22]: 0.197
- glycan array binding signal (z-score) [23]: -1.44
- glycan array binding signal (z-score) [24]: -0.279
- glycan array binding signal (z-score) [25]: -1.83
- glycan array binding signal (z-score) [26]: -1.55
- glycan array binding signal (z-score) [27]: -0.008
- glycan array binding signal (z-score) [28]: 0.093
- glycan array binding signal (z-score) [29]: -1.4
- glycan array binding signal (z-score) [30]: -0.882
- glycan array binding signal (z-score) [31]: -0.134
- glycan array binding signal (z-score) [32]: -0.144
- glycan array binding signal (z-score) [33]: 1.64
- glycan array binding signal (z-score) (Neu5Ac(a2-6)GalNAc): 2.59
- glycan array binding signal (z-score) [34]: 2.25
- glycan array binding signal (z-score) [35]: -0.499
- glycan array binding signal (z-score) [36]: 0.317
